Data as given in PubChem BioAssay AID1347423 (Functional Genomics Laboratory (NCATS/FGL), 2020).
Hit rate of the full screen: of about 52,000 sequences, about 210 (0.4%) were called active.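 The calls were made as follows: active = gene whose silencing raises cell survival under the drug, median off-target-corrected z-score across its silencing RNAs 2 or more; inactive = the rest.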 Some of the results follow.

test: Resistance to Poly (ADP-Ribose) Polymerase inhibitor: Gene Identification via Genome-wide siRNA Screen; details: mouse BRCA2 R2336H ES cells, olaparib, CellTiter-Glo viability; active compounds read high
How it was run: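 Genome-wide siRNA screen (3 siRNAs/gene, 20 nM) in mouse ES cells carrying hypomorphic BRCA2 R2336H; olaparib 500 nM added 48 h post-transfection, CellTiter-Glo viability 72 h later. Normalized to plate-median negative control; MAD z-scores, gene median, seed-adjusted.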

Sequence	z-score
CCACAGUGAGCCAUCGAUATT against Slfn8-pending	inactive: 0.124
AUUCAUGUGGGCUUGUUAGTT against Olfr198	inactive: 0.66
CGGGUGAUGCCUAUGUCAUTT against Gsn	inactive: 1.85
GGAGACUUUGUUCAUGACATT against Tacr2	inactive: 2.03
CCCAUUAGACCCAAGUUGGTT against Inpp5e	inactive: -0.0923
GGAUGACCGUAUUGUGCUUTT against Actc1	inactive: -1.01
GGAAUCGAUGUUAACAUAATT against Anks1	inactive: 1.13
GCAUAUUCUCACGUUUUCCTT against Mrgpra6	inactive: 0.895
GGAUGCUGUUCGAGCUCAUTT against A830039B04Rik	inactive: -1.34
GGCAAGUUUCGCACCUCAGTT against Zfp219	inactive: -0.26
GGAUUAUGGAGUUUGAUAGTT against Mrgprb4	inactive: -0.226
GGGUCAGUCCUUUUGAAUCTT against Rps15a	inactive: -0.291
GCUUUGUCUACGUCUUUCATT against Gpnmb	inactive: 0.309
GCAUCUAUACACCGUCAGCTT against Znf341	inactive: 0.0571
GGUUCAGAUGAAAUUUAGGTT against Ccnb1	inactive: -0.846
GCCUCCCUCCAACAUUUAUTT against Sall4	inactive: -0.954
GGGACGUGCAAUUGUCUGATT against 2210010L05Rik	inactive: 0.163
GGAAAGAUCACUCUUGCAUTT against Pon1	inactive: 0.225
GUAUUCCAAUGUGGUGUUCTT against Txn1	inactive: -1.82
GGUACUAAAGAAAUAUCCCTT against Sirt7	inactive: 0.0535
GCUACAAUGCAACGUGGCUTT against Slc2a4	inactive: 0.421
GGAACUGGGUCUUCUUCAUTT against C330049O21Rik	inactive: -0.716
GGUGGAAAGAGAGAGCUACTT against Slc12a7	inactive: 0.0731
GCUUCUGACCAUAUGUAGATT against Cd19	inactive: -0.259
GGUCACCUCAAUAAACUCUTT against Myl7	inactive: 0.915
GGAAACUUUGCUGGUUAUATT against Dct	inactive: -1.09
GGGCAACCCAAAGAUGCCATT against Pla2g2d	inactive: 0.00202

Sequence	z-score
GGCAGCUCACAUGAGCUUUTT against Hoxa4	inactive: 0.688
GGGCAUGGAUUUUAUCCACTT against 4633402D15Rik	inactive: -0.882
GAGGAGCUAUCAUCUCAGGTT against Mlr1	inactive: 0.556
CGAGUGUGAGCUACAGCGUTT against Agrn	inactive: 0.477
GGACUCACCCAUUCUUAUUTT against Mapre3	inactive: 0.0711
GGCCAUCAAACAGACCUACTT against Lrp5	inactive: 1.01
CAUCUUUCAUCAAAUAACUTT against LOC432602	inactive: 0.458
GGAGAGUGAGAUCAUCUUUTT against Pde6a	inactive: 1.63
GGCGCACAAAGCUGUUCUUTT against Zfp297b	inactive: -0.878
CCCAUAGCUGAGCCUAACUTT against D630005B22Rik	inactive: 0.162
GGUGGUGACCUUGGAUGUUTT against BC021614	inactive: -0.275
UGGAUAUUGGCUGAUGAGCTT against Bckdhb	inactive: -0.667
GCACAACAUCGAAAUUGAGTT against Lrrn6a	inactive: 1.06
GGAAGAUUAUAUUGAGAGATT against Bnip3	inactive: 0.323
GGGAAUGGAAACGGCCAUGTT against Nmt1	inactive: 0.643
CGGAAAUGUAUACAAAUCATT against Myt1l	inactive: 0.139
CGAACUUGGUUUAAGCAAUTT against 4933434L15Rik	inactive: 0.846
GGCAAUAACUGCUUUAUCUTT against Olfr509	inactive: 1.6
CGUGGACUUUAAGGAGCUGTT against Gdf7	inactive: 0.0153
CCUAACUUACCUUCAUCUATT against Fbxo7	inactive: 1.18
GCUGUAACAAAGGAAAUAGTT against Nos2	inactive: 0.356
GUUCCAUCUCCUUCCAGGATT against Cdc42ep2	inactive: -1.35
GGUGACAGAGAUUUUCGAATT against D15Ertd781e	inactive: 0.203
GGCUACUCCUAUGACCUGATT against Psmb5	inactive: -2.41
GGCACAAACCUCUUUUGUUTT against Rtkn	inactive: 2.12
GGGAUAACCAGUGAAUUUATT against Pcdhb15	inactive: 0.407
GCAGUGUCCCUAAAUGUUCTT against Adra1d	inactive: 0.159

Sequence	z-score
GGAUGUGGCCAUGGACUUUTT against Zfp286	inactive: 0.829
GCCUGAACUUCUUAGCAUGTT against Uchl3	inactive: -0.383
GCAGAAGUCGAGCUAUGUUTT against Zfp365	inactive: -1.5
CCAAGAUGCGAGUGGAGAGTT against Rgs9	inactive: -0.438
GCCACACUUUAAUUUCGCATT against Ttc8	inactive: 0.0473
GCCAUGUAGCACGUAACAGTT against 6230416J20Rik	inactive: -1.21
CCCAGUUGCUGUUCUUGACTT against Defb40	inactive: 0.948
GGACCCAGAGAAGAUCAAATT against 4930469P12Rik	inactive: -0.236
GGGAACAAGUUGAGCUACUTT against Ebp	inactive: -0.625
GGUAUCUGUCCAUCCAAAUTT against Tcam1	inactive: -1.08
GGAUUGUGCAUUUCAUUGUTT against Mtmr6	inactive: -0.000463
GGAUGUCAAGGUGGCAUUATT against Olfr147	inactive: 0.525
GGUCAACCUUUAAAAAACATT against Kifc2	inactive: 1.18
GGUUUUUCUGUCAAGUGCUTT against Gpr49	inactive: -0.0802
GGACAAAAUAAUGCUUUCUTT against Cnnm1	inactive: 1.3
GCAAUGAAUUCGACCCAGATT against Ppp2r5e	inactive: -1.57
GGCUACAGCAAGAAGACUUTT against Ctsw	inactive: -0.879
GCCCUGAAAAACAUGCAACTT against B230339H12Rik	inactive: 0.438
GGAUGUUUUCCAGAAGAACTT against Map3k6	inactive: 2.04
GGAAAUCACAAACUUGUGGTT against Tm4sf12	inactive: 0.336
GGCAAGUUUGUCCAGUGGATT against Phc3	inactive: -0.0805
GGAACUGACAGCUAUGAACTT against Atp6v1d	inactive: 0.35
GGGAAAAUUGAAGCUUGUATT against Tfam	inactive: -1.75
GGAGGUACAUCAUCUACAATT against 6330416G13Rik	inactive: -1.03
GGGAAUCCGGAGAAAAUUATT against Aco1	inactive: 0.62
CCCACUCUGUUCAGAGAGUTT against Wbscr22	inactive: -1.04
GGUGCCGACAGUAUUUACATT against A630028O16Rik	inactive: -0.503

Sequence	z-score
GGAGACUGUAGACUUAAAGTT against Rnf25	inactive: 0.463
GCUUCACCACUGGACAAAGTT against Adh1	inactive: -0.956
GGACGAGAAGCUCACUGUATT against Oaz2	inactive: 0.558
GCUUCCUCUUAUCAUAUAATT against Rgs13	inactive: -0.655
CCUCGAGAGACUUUCAUGGTT against F2	inactive: -0.961
GCACUUUCAUGGAUAUAAGTT against Rab22a	inactive: 1.63
GCUAAACACGCUGAAUAUUTT against Phf10	inactive: -1.03
GGCAAAAUGAUCUGCUUUCTT against Rnf36	inactive: -0.954
GGACAAGCACCAGGAUUUUTT against Cyct	inactive: -0.819
GGGUUUUAAUUAUACUGCGTT against Ror2	inactive: 0.677
GCUAACAUACAUCAUCAAATT against Stx5a	inactive: 0.895
GCUCAAAAAACCGAAAUGATT against Pdcd1lg1	inactive: -0.271
GCCCAUUCUGUAGGUGCAUTT against Nrg4	inactive: 1.38
GGGUUAGUCUGUUAGAUCATT against 1810032O08Rik	inactive: 0.202
GGAGAAGAAGGGAAAGCAUTT against Tub	inactive: -1.61
GGACCAAGGAUGUUCGCUUTT against Cnr2	inactive: 1.55
GCUGGAGAACCUCCCUAAATT against Mrps33	inactive: -0.765
GGUGGUGGUGUUCCUCAAGTT against 2900070E19Rik	inactive: -0.261
GGACCACCUAUGGACUACATT against Rbm6	inactive: 0.0705
GGUUGGAAAGCAUUUUUUATT against Commd2	inactive: 0.497
GGGUCAAAGCUCAACGAAATT against Il2rb	inactive: 1.02
GGUUCAUCAAGAAGUUAGATT against Pip5k1c	inactive: -0.935
GGACAUUAAGAGUGGAAAGTT against Nucb1	inactive: -0.527
GGACCGAUUAAGGAAGGAATT against Ppp1r1a	inactive: -0.815

Already shown: an excerpt of the list.
Sequence	z-score
GCCCAUUCUGUAGGUGCAUTT against Nrg4	inactive: 1.38
GGGUUAGUCUGUUAGAUCATT against 1810032O08Rik	inactive: 0.202
GGAGAAGAAGGGAAAGCAUTT against Tub	inactive: -1.61
GGACCAAGGAUGUUCGCUUTT against Cnr2	inactive: 1.55
GCUGGAGAACCUCCCUAAATT against Mrps33	inactive: -0.765
